These are yes or no findings as the source states them, for the method shown. In cells and extracts the contact can be indirect. Some entries that bind do so weakly or less than the wild type. Sequences can lack the tags named with a protein.

The chains behind the UniProt entries cited, without tags or fusion partners.
UniProt Q94CL7: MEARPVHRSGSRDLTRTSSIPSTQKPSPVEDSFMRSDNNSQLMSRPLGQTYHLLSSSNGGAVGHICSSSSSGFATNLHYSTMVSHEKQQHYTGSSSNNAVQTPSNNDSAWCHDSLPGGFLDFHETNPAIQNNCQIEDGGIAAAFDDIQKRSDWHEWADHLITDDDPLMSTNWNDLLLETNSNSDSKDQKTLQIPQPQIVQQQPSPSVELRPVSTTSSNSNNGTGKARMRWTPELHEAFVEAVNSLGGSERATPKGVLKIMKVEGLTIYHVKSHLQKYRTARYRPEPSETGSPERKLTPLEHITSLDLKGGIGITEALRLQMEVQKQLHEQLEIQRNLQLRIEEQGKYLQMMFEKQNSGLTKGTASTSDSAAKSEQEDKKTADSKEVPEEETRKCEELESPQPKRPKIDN

Assay [1] addresses cLUC-PHR1 (PHR1, PHOSPHATE STARVATION RESPONSE 1, fused with the C-terminal half of luciferase) (Arabidopsis thaliana) (UniProt Q94CL7). The assay can be described thus: split reporter; luciferase complementation imaging (LCI); constructs co-infiltrated into leaves of N. benthamiana, LUC signals recorded 2 d after infiltration.
Assay [2] concerns the target cYFP-PHR1 (Arabidopsis thaliana) (UniProt Q94CL7). The assay can be described thus: split reporter; BiFC; PHL4-nYFP and cYFP-PHR1 co-infiltrated into leaves of N. benthamiana, YFP fluorescence detected 2 days after infiltration by confocal microscopy, nuclei shown by DAPI.
The target of assay [3] is T1, PHL3 (PHR1-LIKE 3), LCI fusion used as positive control (Arabidopsis thaliana) (UniProt Q8LAJ7).
T1 sequence: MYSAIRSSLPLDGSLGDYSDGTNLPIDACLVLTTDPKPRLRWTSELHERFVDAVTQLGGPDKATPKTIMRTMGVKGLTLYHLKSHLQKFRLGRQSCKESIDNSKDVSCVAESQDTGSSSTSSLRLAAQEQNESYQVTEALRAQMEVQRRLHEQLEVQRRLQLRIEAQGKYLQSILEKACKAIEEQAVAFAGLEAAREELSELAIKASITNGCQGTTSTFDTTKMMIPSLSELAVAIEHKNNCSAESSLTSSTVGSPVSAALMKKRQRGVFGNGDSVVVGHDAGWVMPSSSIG
Briefly: split reporter; luciferase complementation imaging (LCI); constructs co-infiltrated into leaves of N. benthamiana, LUC signals recorded 2 d after infiltration.

B1: PHL4-nLUC (PHL4, PHR1-LIKE 4, fused with the N-terminal half of luciferase) (protein, UniProt Q8GXC2 1-397)
chain: MIPNDDDDANSMKNYPLNDDDANSMKNYPLNDDDANSMENYPLRSIPTELSHTCSLIPPSLPNPSEAAADMSFNSELNQIMARPCDMLPANGGAVGHNPFLEPGFNCPETTDWIPSPLPHIYFPSGSPNLIMEDGVIDEIHKQSDLPLWYDDLITTDEDPLMSSILGDLLLDTNFNSASKVQQPSMQSQIQQPQAVLQQPSSCVELRPLDRTVSSNSNNNSNSNNAAAAAKGRMRWTPELHEVFVDAVNQLGGSNEATPKGVLKHMKVEGLTIFHVKSHLQKYRTAKYIPVPSEGSPEARLTPLEQITSDDTKRGIDITETLRIQMEHQKKLHEQLESLRTMQLRIEEQGKALLMMIEKQNMGFGGPEQGEKTSAKTPENGSEESESPRPKRPRNEE
As for B1, the binding result in assay [1] is listed as “binds”.

B2: PHL4-nYFP (protein, UniProt Q8GXC2 1-397)
chain: B1 chain
On to B2, for which, in assay [2], the binding result was “binds”.

B3: PHL2 (PHR1-LIKE 2), LCI fusion used as positive control (protein, UniProt Q94A57 1-295)
chain: MYSAIRSLPLDGGHVGGDYHGPLDGTNLPGDACLVLTTDPKPRLRWTTELHERFVDAVTQLGGPDKATPKTIMRTMGVKGLTLYHLKSHLQKFRLGRQAGKESTENSKDASCVGESQDTGSSSTSSMRMAQQEQNEGYQVTEALRAQMEVQRRLHDQLEVQRRLQLRIEAQGKYLQSILEKACKAFDEQAATFAGLEAAREELSELAIKVSNSSQGTSVPYFDATKMMMMPSLSELAVAIDNKNNITTNCSVESSLTSITHGSSISAASMKKRQRGDNLGVGYESGWIMPSSTIG
Take B3: the binding result in assay [3] is “binds”.

Values taken from PMC6174329, “Functional Characterization of Arabidopsis PHL4 in Plant Response to Phosphate Starvation”.
